Test results as given in article PMC12363564, “Modulation of the PTPRS proteoglycan switch by antibodies binding to the membrane-proximal fibronectin-type III domain” (The Journal of Biological Chemistry, 2025).
These are yes or no findings as the source states them, for the method shown. Binding seen in cells or lysates may run through a third protein. Some results given as binding are weak or reduced against the parent protein; the word gives no strength. For part of these data: Sequences can lack the tags named with a protein.

Sequences of proteins named here, by UniProt entry; tags and fusion partners are left off. A change or cut given only in a name is not applied to a line headed by its entry. A line that says so, or that is headed by a name, gives the form on record, which may keep a tag or linker. Residues count along the entry.
UniProt B0V2N1, residues 30-1907: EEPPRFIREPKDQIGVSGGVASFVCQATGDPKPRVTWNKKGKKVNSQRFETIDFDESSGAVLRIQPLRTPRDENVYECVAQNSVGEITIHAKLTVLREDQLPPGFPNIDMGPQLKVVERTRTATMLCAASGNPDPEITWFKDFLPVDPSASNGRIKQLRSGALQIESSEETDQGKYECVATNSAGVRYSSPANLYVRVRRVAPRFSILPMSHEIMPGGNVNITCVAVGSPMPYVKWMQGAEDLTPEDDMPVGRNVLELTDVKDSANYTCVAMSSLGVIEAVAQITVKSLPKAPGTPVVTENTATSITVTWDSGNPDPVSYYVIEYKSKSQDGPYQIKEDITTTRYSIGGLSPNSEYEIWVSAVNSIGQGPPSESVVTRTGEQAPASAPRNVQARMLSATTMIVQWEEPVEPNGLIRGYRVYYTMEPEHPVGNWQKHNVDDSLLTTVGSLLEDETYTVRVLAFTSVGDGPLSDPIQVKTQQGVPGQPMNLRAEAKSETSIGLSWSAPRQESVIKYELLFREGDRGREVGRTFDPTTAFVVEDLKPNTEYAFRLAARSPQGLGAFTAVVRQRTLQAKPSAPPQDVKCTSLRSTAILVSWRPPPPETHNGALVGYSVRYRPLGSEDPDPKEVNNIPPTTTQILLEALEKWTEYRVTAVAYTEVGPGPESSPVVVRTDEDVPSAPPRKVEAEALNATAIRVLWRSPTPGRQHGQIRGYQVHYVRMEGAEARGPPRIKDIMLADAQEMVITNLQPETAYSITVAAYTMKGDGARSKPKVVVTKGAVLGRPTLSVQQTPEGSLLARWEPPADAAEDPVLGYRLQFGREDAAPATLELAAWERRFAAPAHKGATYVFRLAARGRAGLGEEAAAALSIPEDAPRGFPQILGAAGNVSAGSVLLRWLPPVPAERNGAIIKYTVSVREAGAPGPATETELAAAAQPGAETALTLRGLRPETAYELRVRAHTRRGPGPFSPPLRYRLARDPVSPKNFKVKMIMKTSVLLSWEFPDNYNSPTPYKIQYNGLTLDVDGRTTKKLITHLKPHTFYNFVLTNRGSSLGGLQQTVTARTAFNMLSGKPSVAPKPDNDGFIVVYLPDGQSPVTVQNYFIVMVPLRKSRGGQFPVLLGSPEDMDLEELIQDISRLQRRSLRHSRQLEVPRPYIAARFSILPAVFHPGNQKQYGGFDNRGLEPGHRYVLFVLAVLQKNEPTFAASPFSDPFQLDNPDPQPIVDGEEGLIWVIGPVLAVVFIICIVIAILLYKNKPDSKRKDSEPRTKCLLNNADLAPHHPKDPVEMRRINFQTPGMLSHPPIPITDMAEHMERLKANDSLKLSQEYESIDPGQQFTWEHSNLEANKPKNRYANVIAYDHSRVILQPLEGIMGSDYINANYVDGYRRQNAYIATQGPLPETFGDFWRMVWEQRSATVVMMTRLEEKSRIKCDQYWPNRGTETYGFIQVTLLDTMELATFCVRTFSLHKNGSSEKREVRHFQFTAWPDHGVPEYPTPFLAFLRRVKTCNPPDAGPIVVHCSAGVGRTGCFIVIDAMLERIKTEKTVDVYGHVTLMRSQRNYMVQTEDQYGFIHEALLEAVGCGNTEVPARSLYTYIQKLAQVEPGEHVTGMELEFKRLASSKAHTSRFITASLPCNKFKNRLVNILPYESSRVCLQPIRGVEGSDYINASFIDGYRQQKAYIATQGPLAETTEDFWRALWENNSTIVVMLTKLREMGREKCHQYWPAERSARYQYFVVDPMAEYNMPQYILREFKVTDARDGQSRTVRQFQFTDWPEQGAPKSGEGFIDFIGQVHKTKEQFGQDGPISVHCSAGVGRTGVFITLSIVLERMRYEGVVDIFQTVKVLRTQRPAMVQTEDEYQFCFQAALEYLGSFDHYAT
WT human PTPRS (hPTPRS) isoform 1 with a C-terminal HA tag (Q13332, residues 30-1948): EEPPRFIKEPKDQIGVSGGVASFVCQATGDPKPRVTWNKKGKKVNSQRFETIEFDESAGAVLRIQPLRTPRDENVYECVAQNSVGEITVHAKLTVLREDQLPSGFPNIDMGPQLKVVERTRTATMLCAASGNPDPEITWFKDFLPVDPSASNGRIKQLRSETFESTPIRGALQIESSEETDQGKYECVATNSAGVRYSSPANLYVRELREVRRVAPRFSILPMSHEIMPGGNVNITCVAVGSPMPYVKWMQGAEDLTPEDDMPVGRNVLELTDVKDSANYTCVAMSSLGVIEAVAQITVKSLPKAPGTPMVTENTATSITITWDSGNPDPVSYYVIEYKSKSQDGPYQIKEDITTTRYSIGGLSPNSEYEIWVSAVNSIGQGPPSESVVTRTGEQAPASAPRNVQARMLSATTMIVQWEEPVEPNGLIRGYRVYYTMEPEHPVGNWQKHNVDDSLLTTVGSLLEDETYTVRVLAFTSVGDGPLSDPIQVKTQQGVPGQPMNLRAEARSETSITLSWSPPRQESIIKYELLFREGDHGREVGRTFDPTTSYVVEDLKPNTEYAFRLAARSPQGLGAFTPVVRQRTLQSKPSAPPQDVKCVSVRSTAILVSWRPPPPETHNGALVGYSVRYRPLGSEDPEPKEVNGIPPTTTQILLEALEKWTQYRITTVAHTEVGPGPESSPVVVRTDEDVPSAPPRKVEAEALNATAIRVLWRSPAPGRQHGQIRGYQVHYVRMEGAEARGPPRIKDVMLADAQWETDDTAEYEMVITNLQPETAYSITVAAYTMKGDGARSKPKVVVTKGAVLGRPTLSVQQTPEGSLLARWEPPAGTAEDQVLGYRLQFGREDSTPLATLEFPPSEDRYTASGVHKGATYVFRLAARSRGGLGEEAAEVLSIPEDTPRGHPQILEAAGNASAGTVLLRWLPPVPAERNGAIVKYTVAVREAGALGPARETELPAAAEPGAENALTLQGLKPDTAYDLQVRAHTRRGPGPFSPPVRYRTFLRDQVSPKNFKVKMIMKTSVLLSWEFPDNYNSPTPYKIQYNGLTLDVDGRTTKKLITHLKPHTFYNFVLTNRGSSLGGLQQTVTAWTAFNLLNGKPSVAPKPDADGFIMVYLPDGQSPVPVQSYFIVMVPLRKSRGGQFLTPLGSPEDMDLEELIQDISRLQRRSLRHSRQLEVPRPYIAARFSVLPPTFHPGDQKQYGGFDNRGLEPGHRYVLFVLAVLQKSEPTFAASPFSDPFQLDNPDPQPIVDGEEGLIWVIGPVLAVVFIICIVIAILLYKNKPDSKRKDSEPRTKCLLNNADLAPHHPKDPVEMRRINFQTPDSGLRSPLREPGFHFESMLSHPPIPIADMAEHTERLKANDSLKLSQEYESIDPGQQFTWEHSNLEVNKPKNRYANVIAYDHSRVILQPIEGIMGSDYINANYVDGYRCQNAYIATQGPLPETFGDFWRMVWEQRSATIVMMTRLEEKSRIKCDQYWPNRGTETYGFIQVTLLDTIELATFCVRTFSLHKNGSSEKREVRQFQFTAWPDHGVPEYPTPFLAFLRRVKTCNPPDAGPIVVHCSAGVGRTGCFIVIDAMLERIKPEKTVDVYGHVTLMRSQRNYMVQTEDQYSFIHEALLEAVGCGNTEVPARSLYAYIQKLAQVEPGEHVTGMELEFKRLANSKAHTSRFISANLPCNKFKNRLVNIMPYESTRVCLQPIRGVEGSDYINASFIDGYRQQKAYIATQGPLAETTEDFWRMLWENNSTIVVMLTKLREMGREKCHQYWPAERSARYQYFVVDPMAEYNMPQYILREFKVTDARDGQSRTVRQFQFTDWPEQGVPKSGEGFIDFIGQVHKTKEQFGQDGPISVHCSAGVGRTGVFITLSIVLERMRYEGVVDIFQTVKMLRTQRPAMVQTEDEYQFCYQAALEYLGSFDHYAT
hPTPRS Fn9mut (1146QSPVPVQ1152 mutated to GAAVAVA) with a C-terminal HA tag (Q13332, form named): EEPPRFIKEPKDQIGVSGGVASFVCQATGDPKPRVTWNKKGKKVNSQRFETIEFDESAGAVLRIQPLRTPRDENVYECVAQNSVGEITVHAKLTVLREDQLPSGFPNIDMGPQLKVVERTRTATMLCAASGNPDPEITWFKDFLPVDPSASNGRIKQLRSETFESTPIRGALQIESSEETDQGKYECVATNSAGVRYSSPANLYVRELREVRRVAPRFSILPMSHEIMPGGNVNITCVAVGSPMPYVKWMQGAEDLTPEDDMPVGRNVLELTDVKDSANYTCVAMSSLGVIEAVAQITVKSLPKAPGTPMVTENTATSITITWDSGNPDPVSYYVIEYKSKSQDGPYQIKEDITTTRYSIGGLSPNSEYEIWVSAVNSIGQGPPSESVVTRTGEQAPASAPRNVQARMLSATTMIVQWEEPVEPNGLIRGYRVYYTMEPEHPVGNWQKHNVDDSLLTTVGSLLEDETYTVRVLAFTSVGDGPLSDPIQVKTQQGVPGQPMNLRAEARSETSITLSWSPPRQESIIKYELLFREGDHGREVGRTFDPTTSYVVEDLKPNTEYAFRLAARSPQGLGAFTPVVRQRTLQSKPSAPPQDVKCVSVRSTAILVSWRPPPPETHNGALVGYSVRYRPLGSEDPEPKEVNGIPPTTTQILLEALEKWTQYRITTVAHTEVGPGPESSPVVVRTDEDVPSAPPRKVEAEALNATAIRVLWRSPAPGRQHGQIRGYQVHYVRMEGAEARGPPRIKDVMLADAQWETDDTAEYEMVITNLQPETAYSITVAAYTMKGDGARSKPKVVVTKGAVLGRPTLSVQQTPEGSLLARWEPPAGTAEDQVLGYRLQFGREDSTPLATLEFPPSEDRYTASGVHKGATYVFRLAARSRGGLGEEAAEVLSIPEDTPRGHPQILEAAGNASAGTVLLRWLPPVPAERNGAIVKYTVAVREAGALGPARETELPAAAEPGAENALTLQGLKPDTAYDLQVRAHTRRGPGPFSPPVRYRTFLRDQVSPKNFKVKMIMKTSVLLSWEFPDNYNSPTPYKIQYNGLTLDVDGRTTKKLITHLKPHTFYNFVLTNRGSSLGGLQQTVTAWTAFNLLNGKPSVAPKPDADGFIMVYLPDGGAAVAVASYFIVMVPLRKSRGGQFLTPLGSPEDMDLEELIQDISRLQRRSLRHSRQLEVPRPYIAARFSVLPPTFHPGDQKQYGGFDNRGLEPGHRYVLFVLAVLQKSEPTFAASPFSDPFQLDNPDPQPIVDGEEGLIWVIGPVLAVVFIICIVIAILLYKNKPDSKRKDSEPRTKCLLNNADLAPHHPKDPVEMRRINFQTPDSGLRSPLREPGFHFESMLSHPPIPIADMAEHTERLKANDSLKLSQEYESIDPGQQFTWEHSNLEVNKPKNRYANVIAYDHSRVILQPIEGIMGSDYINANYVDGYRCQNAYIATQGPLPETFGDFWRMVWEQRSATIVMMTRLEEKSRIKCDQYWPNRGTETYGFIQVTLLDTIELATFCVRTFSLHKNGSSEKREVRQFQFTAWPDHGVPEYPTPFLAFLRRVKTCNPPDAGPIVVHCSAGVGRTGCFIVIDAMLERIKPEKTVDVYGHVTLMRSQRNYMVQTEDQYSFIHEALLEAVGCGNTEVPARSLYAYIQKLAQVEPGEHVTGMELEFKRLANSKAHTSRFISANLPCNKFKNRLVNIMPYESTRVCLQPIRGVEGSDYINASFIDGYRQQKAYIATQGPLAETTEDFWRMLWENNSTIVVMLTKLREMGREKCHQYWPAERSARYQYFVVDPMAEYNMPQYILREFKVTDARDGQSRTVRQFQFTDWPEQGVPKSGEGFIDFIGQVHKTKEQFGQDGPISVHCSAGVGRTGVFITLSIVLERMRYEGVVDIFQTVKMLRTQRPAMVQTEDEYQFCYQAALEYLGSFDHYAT

Tests used:
[1] = target: T1, WT mouse syndecan-4 (mSDC4) with a C-terminal Flag tag (mouse) (UniProt O35988); test: proximity ligation; HEK293T cells co-transfected with HA-tagged human PTPRS (WT or mutant) and Flag-tagged mouse SDC4 or Flag-tagged mouse PTPRS; fixed, permeabilised; anti-HA and anti-Flag primary antibodies, Duolink
T1 sequence: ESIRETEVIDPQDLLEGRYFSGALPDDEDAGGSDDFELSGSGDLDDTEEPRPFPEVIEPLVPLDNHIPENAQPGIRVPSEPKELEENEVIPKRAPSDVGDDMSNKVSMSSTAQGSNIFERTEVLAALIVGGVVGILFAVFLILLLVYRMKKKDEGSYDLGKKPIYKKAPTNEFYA

[2] = target: WT mouse PTPRS (mPTPRS) with a C-terminal Flag tag (mouse) (UniProt B0V2N1); test: as above

**Q.** Which results are given for “WT human PTPRS (hPTPRS) isoform 1 with a C-terminal HA tag (from UniProt Q13332 30-1948) (receptor)”?
**A.** binding [1]: binds; binding [2]: binds

**Q.** For “hPTPRS Fn9mut (1146QSPVPVQ1152 mutated to GAAVAVA) with a C-terminal HA tag (from UniProt Q13332 30-1948) (receptor)”, which binding [1] is on record?
**A.** binds
